Measurements reported in PubChem BioAssay AID1259405 (NCATS, 2018)

Aim: 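Mouse-designed siRNAs used to find CHO productivity engineering targets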 (primary screen)
Cell system: Chinese hamster CHO-K1 ovary cells with stable secreted eGFP expression
Reagents: single siRNA against mouse genes, 0.8 pmol siRNA per well (2 µl of 400 nM stock)
Timing: 3 days
Detection: 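Per-well intracellular GFP measured by laser scanning cytometry, plus viability from ATP luminescence, each relative to plate median of non-targeting control wells, in %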
Reading the numbers: GFP, % of control: higher = more GFP per well, higher productivity; viability (ATP), % of control: higher = more viable cells (more ATP)
Hit rule: 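a knock-down is called active if GFP reaches 120% or more of non-targeting control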
Shown is a random part of about 50,000 reagents tested. About 4,000 of them (8%) count as active. 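Mouse siRNA library applied to hamster cells; one well for each siRNA.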 Unmarked entries are inactive. The numbers tell different reagents against one gene apart. Reagent sequences are not shown.

no.	gene	reagent	GFP, % of control	viability (ATP), % of control
1	Tulp2 (GeneID 56734)	1	96.1	86.7
2	Tulp2 (GeneID 56734)	2	92.3	86.1
3	Tulp2 (GeneID 56734)	3	120 (active)	86.2
4	Mapk15 (GeneID 332110)	1	120 (active)	47.2
5	Psmb3 (GeneID 26446)	1	10.2	4.6
6	Psmb3 (GeneID 26446)	2	2.77	1.35
7	Psmb3 (GeneID 26446)	3	64.3	55.6
8	Prkg1 (GeneID 19091)	1	64.7	69.7
9	Bap1 (GeneID 104416)	1	81.3	91.1
10	Bap1 (GeneID 104416)	2	40.3	31.5
11	Bap1 (GeneID 104416)	3	60.6	68
12	Spg11 (GeneID 214585)	1	71.8	79.4
13	Spg11 (GeneID 214585)	2	62.9	56.7
14	Spg11 (GeneID 214585)	3	75.6	98.9
15	Or8g27 (GeneID 258500)	1	79.6	52.5
16	Or8g27 (GeneID 258500)	2	40	41
17	Or8g27 (GeneID 258500)	3	80.2	60.1
18	Vmn1r71 (GeneID 252910)	1	97.6	62.8
19	Vmn1r71 (GeneID 252910)	2	53.8	70.7
20	Vmn1r71 (GeneID 252910)	3	96.6	57.5
21	Rubcn (GeneID 100502698)	1	59.6	79.5
22	Rubcn (GeneID 100502698)	2	66.5	97.4
23	Rubcn (GeneID 100502698)	3	77.8	91
24	Wnt7b (GeneID 22422)	1	81.5	53.1
25	Wnt7b (GeneID 22422)	2	60.7	49.8
26	Wnt7b (GeneID 22422)	3	69.6	81.2
27	Dimt1 (GeneID 66254)	1	75.3	67.4
28	Dimt1 (GeneID 66254)	2	79.3	103
29	Dimt1 (GeneID 66254)	3	61.4	58.3
30	Ifitm10 (GeneID 320802)	1	66.3	63.8
31	Ifitm10 (GeneID 320802)	2	83.4	85
32	Ifitm10 (GeneID 320802)	3	116	122
33	Thap11 (GeneID 59016)	1	116	97.2
34	Thap11 (GeneID 59016)	2	79.5	97.9
35	Thap11 (GeneID 59016)	3	96	106
36	Rpl27 (GeneID 19942)	1	93.1	64.9
37	Rpl27 (GeneID 19942)	2	64.5	39.1
38	Rpl27 (GeneID 19942)	3	28.6	21.4
39	Pitpnm2 (GeneID 19679)	1	57.5	49.5
40	Pitpnm2 (GeneID 19679)	2	80.7	102
41	Pitpnm2 (GeneID 19679)	3	72.9	67.7
42	D830030K20Rik (GeneID 320333)	1	105	119
43	D830030K20Rik (GeneID 320333)	2	98	129
44	D830030K20Rik (GeneID 320333)	3	73.5	63.5
45	Supt20 (GeneID 56790)	1	119	97.8
46	Supt20 (GeneID 56790)	2	79.7	83.4
47	Supt20 (GeneID 56790)	3	113	75.9

Sorted by “viability (ATP), % of control” (high to low): some entries from above.
gene	reagent	GFP, % of control	viability (ATP), % of control
Dimt1 (GeneID 66254)	2	79.3	103
Rubcn (GeneID 100502698)	2	66.5	97.4
Rubcn (GeneID 100502698)	3	77.8	91
Ifitm10 (GeneID 320802)	2	83.4	85
Wnt7b (GeneID 22422)	3	69.6	81.2
Rubcn (GeneID 100502698)	1	59.6	79.5
Dimt1 (GeneID 66254)	1	75.3	67.4
Ifitm10 (GeneID 320802)	1	66.3	63.8
Dimt1 (GeneID 66254)	3	61.4	58.3
Vmn1r71 (GeneID 252910)	3	96.6	57.5
Wnt7b (GeneID 22422)	1	81.5	53.1
Wnt7b (GeneID 22422)	2	60.7	49.8

The listing continues.
no.	gene	reagent	GFP, % of control	viability (ATP), % of control
48	Trhr (GeneID 22045)	1	74	80.4
49	Trhr (GeneID 22045)	2	51.9	75
50	Trhr (GeneID 22045)	3	73.2	87.1
51	Hoxc4 (GeneID 15423)	1	97.7	79.1
52	Hoxc4 (GeneID 15423)	2	47.2	46.7
53	Hoxc4 (GeneID 15423)	3	103	99.5
54	Lyplal1 (GeneID 226791)	1	75.3	89.3
55	Lyplal1 (GeneID 226791)	2	62.8	86.1
56	Lyplal1 (GeneID 226791)	3	69	88.5
57	Or9g4b (GeneID 258564)	1	101	47.2
58	Or9g4b (GeneID 258564)	2	99.9	107
59	Or9g4b (GeneID 258564)	3	75.1	73.6
60	Dennd6a (GeneID 211922)	1	72.9	74
61	Dennd6a (GeneID 211922)	2	46.8	26.5
62	Dennd6a (GeneID 211922)	3	48.1	71.3
63	Cyp2d22 (GeneID 56448)	1	66	48.7
64	Cyp2d22 (GeneID 56448)	2	69.5	60.5
65	Cyp2d22 (GeneID 56448)	3	27.3	43.6
66	Fgf23 (GeneID 64654)	1	73.2	77.4
67	Fgf23 (GeneID 64654)	2	102	84.4
68	Fgf23 (GeneID 64654)	3	54.9	63.1
69	Alb (GeneID 11657)	1	111	86.2
70	Alb (GeneID 11657)	2	130 (active)	77.8
71	Alb (GeneID 11657)	3	49.4	48
72	Utp6 (GeneID 216987)	1	76.7	78.9
73	Utp6 (GeneID 216987)	2	62.8	56
74	Utp6 (GeneID 216987)	3	56.3	56.6
75	Camk2d (GeneID 108058)	1	88.2	78.3
76	Bnc1 (GeneID 12173)	1	71.9	73.3
77	Bnc1 (GeneID 12173)	2	93.7	91
78	Bnc1 (GeneID 12173)	3	153 (active)	158
79	Slc66a2 (GeneID 66943)	1	50.9	79.2
80	Slc66a2 (GeneID 66943)	2	71.8	54.8
81	Slc66a2 (GeneID 66943)	3	44.7	51.1
82	Akr1b10 (GeneID 67861)	1	67.5	33
83	Akr1b10 (GeneID 67861)	2	66.3	59.9
84	Akr1b10 (GeneID 67861)	3	36.7	55.1
